5 substances from article PMC8278045 can be followed below.

Protein sequences, listed by entry. Tags and fused reporters are not part of them. Lines headed by an entry give the natural chain unless they say otherwise; changes in a name come on top.
UniProt Q31NL7: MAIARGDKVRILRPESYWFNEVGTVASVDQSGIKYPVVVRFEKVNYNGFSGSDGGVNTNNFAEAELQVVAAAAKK
UniProt P95822: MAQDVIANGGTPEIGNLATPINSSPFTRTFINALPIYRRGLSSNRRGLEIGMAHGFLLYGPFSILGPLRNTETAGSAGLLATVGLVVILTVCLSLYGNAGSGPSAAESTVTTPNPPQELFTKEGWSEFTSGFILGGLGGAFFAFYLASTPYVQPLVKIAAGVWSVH
UniProt P11472: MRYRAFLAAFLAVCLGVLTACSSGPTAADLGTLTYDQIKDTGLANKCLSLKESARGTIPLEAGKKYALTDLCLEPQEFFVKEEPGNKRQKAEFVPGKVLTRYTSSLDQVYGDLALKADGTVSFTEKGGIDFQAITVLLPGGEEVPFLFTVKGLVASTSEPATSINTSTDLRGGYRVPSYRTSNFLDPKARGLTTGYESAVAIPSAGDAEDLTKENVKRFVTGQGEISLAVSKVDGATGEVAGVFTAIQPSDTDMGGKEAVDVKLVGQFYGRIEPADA
UniProt P31094: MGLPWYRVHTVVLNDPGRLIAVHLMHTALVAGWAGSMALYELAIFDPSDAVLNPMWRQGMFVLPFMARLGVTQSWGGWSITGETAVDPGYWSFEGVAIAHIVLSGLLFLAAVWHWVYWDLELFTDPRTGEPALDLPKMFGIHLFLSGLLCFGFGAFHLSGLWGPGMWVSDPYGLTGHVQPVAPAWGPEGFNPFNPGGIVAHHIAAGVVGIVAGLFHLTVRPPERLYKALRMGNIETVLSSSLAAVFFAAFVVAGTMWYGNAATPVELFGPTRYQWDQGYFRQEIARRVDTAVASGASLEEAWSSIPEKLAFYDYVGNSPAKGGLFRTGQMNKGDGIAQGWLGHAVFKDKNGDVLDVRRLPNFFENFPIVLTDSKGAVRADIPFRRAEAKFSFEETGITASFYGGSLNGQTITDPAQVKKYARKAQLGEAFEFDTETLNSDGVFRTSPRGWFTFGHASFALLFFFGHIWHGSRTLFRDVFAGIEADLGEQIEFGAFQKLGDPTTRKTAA
UniProt Q31LJ0: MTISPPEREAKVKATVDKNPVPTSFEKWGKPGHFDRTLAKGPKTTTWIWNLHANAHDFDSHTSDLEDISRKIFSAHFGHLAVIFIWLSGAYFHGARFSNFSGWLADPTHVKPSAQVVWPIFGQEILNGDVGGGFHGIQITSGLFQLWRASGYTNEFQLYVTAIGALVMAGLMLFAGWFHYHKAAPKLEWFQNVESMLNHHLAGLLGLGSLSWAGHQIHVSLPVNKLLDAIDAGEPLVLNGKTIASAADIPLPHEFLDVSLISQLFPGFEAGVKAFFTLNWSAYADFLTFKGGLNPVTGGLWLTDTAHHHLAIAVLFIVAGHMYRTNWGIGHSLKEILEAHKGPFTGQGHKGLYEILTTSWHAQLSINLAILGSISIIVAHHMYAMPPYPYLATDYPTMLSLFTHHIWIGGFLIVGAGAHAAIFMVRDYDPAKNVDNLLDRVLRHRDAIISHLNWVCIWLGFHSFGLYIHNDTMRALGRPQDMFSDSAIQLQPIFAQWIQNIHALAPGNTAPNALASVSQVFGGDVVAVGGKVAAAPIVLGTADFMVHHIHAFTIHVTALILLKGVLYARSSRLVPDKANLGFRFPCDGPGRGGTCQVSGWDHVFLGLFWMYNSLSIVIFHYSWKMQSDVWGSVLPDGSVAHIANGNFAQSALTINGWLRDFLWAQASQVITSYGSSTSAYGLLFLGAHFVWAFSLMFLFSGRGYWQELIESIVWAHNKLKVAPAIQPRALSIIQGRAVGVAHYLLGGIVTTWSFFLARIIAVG
UniProt Q31LJ1: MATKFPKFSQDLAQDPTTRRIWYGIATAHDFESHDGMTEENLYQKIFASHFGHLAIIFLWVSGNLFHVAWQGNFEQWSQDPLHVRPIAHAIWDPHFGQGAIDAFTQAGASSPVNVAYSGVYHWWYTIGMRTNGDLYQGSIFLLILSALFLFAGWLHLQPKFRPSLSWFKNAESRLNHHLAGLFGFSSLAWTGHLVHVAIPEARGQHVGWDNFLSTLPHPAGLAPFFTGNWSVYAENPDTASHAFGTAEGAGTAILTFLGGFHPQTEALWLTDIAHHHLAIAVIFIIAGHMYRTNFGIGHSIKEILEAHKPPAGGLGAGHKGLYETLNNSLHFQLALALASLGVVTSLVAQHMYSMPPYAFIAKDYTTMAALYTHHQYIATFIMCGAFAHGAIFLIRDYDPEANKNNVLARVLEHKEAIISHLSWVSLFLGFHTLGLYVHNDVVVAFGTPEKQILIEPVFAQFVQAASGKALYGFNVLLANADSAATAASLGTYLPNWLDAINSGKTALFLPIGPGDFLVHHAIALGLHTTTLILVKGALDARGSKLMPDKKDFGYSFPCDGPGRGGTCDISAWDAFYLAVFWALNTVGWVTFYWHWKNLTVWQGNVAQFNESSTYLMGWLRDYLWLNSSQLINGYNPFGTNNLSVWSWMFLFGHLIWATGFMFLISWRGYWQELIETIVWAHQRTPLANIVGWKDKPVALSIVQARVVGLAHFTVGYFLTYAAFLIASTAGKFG

These are yes or no findings as the source states them, for the method shown. Binding seen in cells or lysates may run through a third protein. A result given as binding can be weak or reduced; the word gives no strength.

The target in one experiment is PsaE of Photosystem I labelled with enhanced GFP (PSI–GFP) (Synechococcus elongatus PCC 7942) (UniProt Q31NL7). As to the kind of experiment: co-IP; GFP pull-down (µMACS/MultiMACS GFP Isolation Kit beads) from thylakoid membranes of GFP-labelled Syn7942 strains solubilised with 1% digitonin; five washes with 10 mM Tris pH 6.8, 200 mM NaCl, 1 mM EDTA; eluate on 12% SDS-PAGE, subunits assigned to bands.
As to PsaL (from UniProt P95822), the binding result is reported as “binds”. Regarding PsbO (from UniProt P11472), the binding entry is “binds”. Consider PsbB (CP47) (from UniProt P31094 1-508), for which the binding entry is given as “binds”.

The next experiment concerns the target PsbB (CP47) of Photosystem II labelled with enhanced GFP (PSII–GFP) (Synechococcus elongatus PCC 7942) (UniProt P31094). Described as above.
Take PsaA (from UniProt Q31LJ0): the binding result is recorded as “binds”.

As to PsaB (from UniProt Q31LJ1), the binding entry is listed as “binds”.

As for PsaL (from UniProt P95822), the binding entry is “binds”.
